Paper doi:10.1101/2022.11.14.515780

Molecular target: T1, GxcM-GFP (Dictyostelium discoideum) (UniProt Q1ZXN6)
T1 sequence: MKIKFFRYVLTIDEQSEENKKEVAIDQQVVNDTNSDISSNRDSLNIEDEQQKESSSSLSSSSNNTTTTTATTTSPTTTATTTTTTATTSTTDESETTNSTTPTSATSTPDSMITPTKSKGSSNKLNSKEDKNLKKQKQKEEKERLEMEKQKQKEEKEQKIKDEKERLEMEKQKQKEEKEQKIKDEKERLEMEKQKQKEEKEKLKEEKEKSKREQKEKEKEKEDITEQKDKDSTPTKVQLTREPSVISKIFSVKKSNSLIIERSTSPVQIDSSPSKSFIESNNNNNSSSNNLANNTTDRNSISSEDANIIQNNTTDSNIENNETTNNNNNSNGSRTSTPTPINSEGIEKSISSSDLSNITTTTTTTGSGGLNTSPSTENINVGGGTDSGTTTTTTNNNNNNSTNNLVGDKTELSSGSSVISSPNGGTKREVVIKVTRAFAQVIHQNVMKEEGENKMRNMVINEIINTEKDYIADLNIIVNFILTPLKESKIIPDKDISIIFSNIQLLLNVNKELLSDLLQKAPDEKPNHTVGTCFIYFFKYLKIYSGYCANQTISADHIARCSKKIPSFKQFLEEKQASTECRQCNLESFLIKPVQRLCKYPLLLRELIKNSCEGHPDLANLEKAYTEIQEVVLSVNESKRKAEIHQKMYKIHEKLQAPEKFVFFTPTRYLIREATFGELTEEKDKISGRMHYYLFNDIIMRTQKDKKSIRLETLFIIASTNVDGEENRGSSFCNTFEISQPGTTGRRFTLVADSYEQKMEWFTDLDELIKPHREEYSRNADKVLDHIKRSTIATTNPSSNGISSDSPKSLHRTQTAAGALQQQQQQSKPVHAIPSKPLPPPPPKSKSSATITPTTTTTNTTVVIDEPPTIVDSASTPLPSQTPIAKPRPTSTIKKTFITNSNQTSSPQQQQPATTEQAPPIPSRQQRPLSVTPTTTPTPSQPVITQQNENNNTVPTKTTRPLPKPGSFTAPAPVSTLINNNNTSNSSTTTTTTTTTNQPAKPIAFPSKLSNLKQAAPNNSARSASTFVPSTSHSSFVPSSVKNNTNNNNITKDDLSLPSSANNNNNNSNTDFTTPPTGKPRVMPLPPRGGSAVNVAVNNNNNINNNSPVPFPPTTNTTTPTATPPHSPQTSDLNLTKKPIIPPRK
Test: affinity purification with mass spectrometry

Substance: Fbp17 (SH3 domain-containing protein, gene ID DDB_G0271812) (from UniProt Q55AN3)
- binding: binds

Results are given in words; binding and its absence hold for the method and conditions named. In cells and extracts the contact can be indirect. These calls come from enrichment with a bait or labelling near it, and not all partners need be listed. Where a sequence is shown, tags or fusion partners need not be part of it.
